# In the supplement of paper PMC11438910:
# Some of the results follow. Most of these values are background signal.
# Legend:
# Assay in all cases: fluorescence intensity of antibody binding to polysaccharide-coupled beads; higher = stronger binding
# [1] = biological target: pneumococcal polysaccharide Pn22A
# [2] = biological target: pneumococcal polysaccharide Pn22F
# [3] = biological target: pneumococcal polysaccharide Pn23A
# [4] = biological target: pneumococcal polysaccharide Pn23B
# [5] = biological target: pneumococcal polysaccharide Pn23F
# [6] = biological target: pneumococcal polysaccharide Pn24A
# [7] = biological target: pneumococcal polysaccharide Pn24B
# [8] = biological target: pneumococcal polysaccharide Pn24F
# [9] = biological target: pneumococcal polysaccharide Pn25A
# [10] = biological target: pneumococcal polysaccharide Pn25F
# [11] = biological target: pneumococcal polysaccharide Pn27
# [12] = biological target: pneumococcal polysaccharide Pn28A
# [13] = biological target: pneumococcal polysaccharide Pn28F
# [14] = biological target: pneumococcal polysaccharide Pn29
# [15] = biological target: pneumococcal polysaccharide Pn3
# [16] = biological target: pneumococcal polysaccharide Pn31
# [17] = biological target: pneumococcal polysaccharide Pn32A
# [18] = biological target: pneumococcal polysaccharide Pn32F
# [19] = biological target: pneumococcal polysaccharide Pn33A
# [20] = biological target: pneumococcal polysaccharide Pn33B
# [21] = biological target: pneumococcal polysaccharide Pn33C
# [22] = biological target: pneumococcal polysaccharide Pn33D
# [23] = biological target: pneumococcal polysaccharide Pn33F
# [24] = antibody concentration 81.7561 ng/mL
# [25] = antibody concentration 437.17 ng/mL
# [26] = antibody concentration 2337.65 ng/mL
# [27] = antibody concentration 12500 ng/mL
# [28] = antibody concentration 0.1 ng/mL
# [29] = antibody concentration 0.534724 ng/mL
# [30] = antibody concentration 2.8593 ng/mL
# [31] = antibody concentration 15.2894 ng/mL
binder,measurement,setting,value
4-127.1 (protein) chain 1: QVQLQESGPGLVKPSETLSLTCAVSDYSINTGHGWTWIRQPPGKGLEWIGYIGGSSGSPNYNPSLKSRVTISKDTSKNELSLKLNSVTAADTAVYYCARRIPADRSGNDFWGQGVLVTVSS chain 2: QSVLTQPPSVSGDPGQRVTISCTGSSSNIGGFYGYWYQQFPGTAPKLLIYDNNKRPSGISDRFSGSKSGTSASLTITGLQPGDEADYYCGSWDSSLSAHVFGSGTKLTVL,fluorescence intensity,[1]; [24],23 MFI
same,fluorescence intensity,[1]; [25],20.5 MFI
same,fluorescence intensity,[1]; [26],24 MFI
same,fluorescence intensity,[1]; [27],35.8 MFI
same,fluorescence intensity,[2]; [28],30.8 MFI
same,fluorescence intensity,[2]; [29],32 MFI
same,fluorescence intensity,[2]; [30],32.2 MFI
same,fluorescence intensity,[2]; [31],33.2 MFI
same,fluorescence intensity,[2]; [24],31.5 MFI
same,fluorescence intensity,[2]; [25],31.5 MFI
same,fluorescence intensity,[2]; [26],33.8 MFI
same,fluorescence intensity,[2]; [27],37.2 MFI
same,fluorescence intensity,[3]; [28],21.5 MFI
same,fluorescence intensity,[3]; [29],27.5 MFI
same,fluorescence intensity,[3]; [30],23 MFI
same,fluorescence intensity,[3]; [31],24 MFI
same,fluorescence intensity,[3]; [24],22 MFI
same,fluorescence intensity,[3]; [25],28 MFI
same,fluorescence intensity,[3]; [26],36 MFI
same,fluorescence intensity,[3]; [27],49.5 MFI
same,fluorescence intensity,[4]; [28],28.2 MFI
same,fluorescence intensity,[4]; [29],31.5 MFI
same,fluorescence intensity,[4]; [30],29 MFI
same,fluorescence intensity,[4]; [31],28 MFI
same,fluorescence intensity,[4]; [24],32 MFI
same,fluorescence intensity,[4]; [25],30.5 MFI
same,fluorescence intensity,[4]; [26],32.5 MFI
same,fluorescence intensity,[4]; [27],35 MFI
same,fluorescence intensity,[5]; [28],18 MFI
same,fluorescence intensity,[5]; [29],18.5 MFI
same,fluorescence intensity,[5]; [30],17.2 MFI
same,fluorescence intensity,[5]; [31],17.5 MFI
same,fluorescence intensity,[5]; [24],18 MFI
same,fluorescence intensity,[5]; [25],18.5 MFI
same,fluorescence intensity,[5]; [26],22.2 MFI
same,fluorescence intensity,[5]; [27],34 MFI
same,fluorescence intensity,[6]; [28],14 MFI
same,fluorescence intensity,[6]; [29],16.5 MFI
same,fluorescence intensity,[6]; [30],17.5 MFI
same,fluorescence intensity,[6]; [31],16 MFI
same,fluorescence intensity,[6]; [24],16 MFI
same,fluorescence intensity,[6]; [25],15 MFI
same,fluorescence intensity,[6]; [26],16.2 MFI
same,fluorescence intensity,[6]; [27],20.5 MFI
same,fluorescence intensity,[7]; [28],19 MFI
same,fluorescence intensity,[7]; [29],17.5 MFI
same,fluorescence intensity,[7]; [30],18.5 MFI
same,fluorescence intensity,[7]; [31],17.5 MFI
same,fluorescence intensity,[7]; [24],16.2 MFI
same,fluorescence intensity,[7]; [25],20 MFI
same,fluorescence intensity,[7]; [26],22.5 MFI
same,fluorescence intensity,[7]; [27],29 MFI
same,fluorescence intensity,[8]; [28],17.5 MFI
same,fluorescence intensity,[8]; [29],20.5 MFI
same,fluorescence intensity,[8]; [30],19.5 MFI
same,fluorescence intensity,[8]; [31],16.2 MFI
same,fluorescence intensity,[8]; [24],19.5 MFI
same,fluorescence intensity,[8]; [25],19 MFI
same,fluorescence intensity,[8]; [26],24 MFI
same,fluorescence intensity,[8]; [27],27.2 MFI
same,fluorescence intensity,[9]; [28],23.5 MFI
same,fluorescence intensity,[9]; [29],23 MFI
same,fluorescence intensity,[9]; [30],22 MFI
same,fluorescence intensity,[9]; [31],23 MFI
same,fluorescence intensity,[9]; [24],23 MFI
same,fluorescence intensity,[9]; [25],26 MFI
same,fluorescence intensity,[9]; [26],30.2 MFI
same,fluorescence intensity,[9]; [27],34.5 MFI
same,fluorescence intensity,[10]; [28],29.2 MFI
same,fluorescence intensity,[10]; [29],31.5 MFI
same,fluorescence intensity,[10]; [30],30.5 MFI
same,fluorescence intensity,[10]; [31],31 MFI
same,fluorescence intensity,[10]; [24],31 MFI
same,fluorescence intensity,[10]; [25],32 MFI
same,fluorescence intensity,[10]; [26],33.2 MFI
same,fluorescence intensity,[10]; [27],37.8 MFI
same,fluorescence intensity,[11]; [28],17.5 MFI
same,fluorescence intensity,[11]; [29],17 MFI
same,fluorescence intensity,[11]; [30],17 MFI
same,fluorescence intensity,[11]; [31],16.5 MFI
same,fluorescence intensity,[11]; [24],17 MFI
same,fluorescence intensity,[11]; [25],17.5 MFI
same,fluorescence intensity,[11]; [26],23 MFI
same,fluorescence intensity,[11]; [27],70.2 MFI
same,fluorescence intensity,[12]; [28],27.8 MFI
same,fluorescence intensity,[12]; [29],26 MFI
same,fluorescence intensity,[12]; [30],27.5 MFI
same,fluorescence intensity,[12]; [31],27 MFI
same,fluorescence intensity,[12]; [24],27.5 MFI
same,fluorescence intensity,[12]; [25],27 MFI
same,fluorescence intensity,[12]; [26],31.8 MFI
same,fluorescence intensity,[12]; [27],35 MFI
same,fluorescence intensity,[13]; [28],29.5 MFI
same,fluorescence intensity,[13]; [29],30 MFI
same,fluorescence intensity,[13]; [30],30 MFI
same,fluorescence intensity,[13]; [31],29.8 MFI
same,fluorescence intensity,[13]; [24],27.5 MFI
same,fluorescence intensity,[13]; [25],30.8 MFI
same,fluorescence intensity,[13]; [26],32 MFI
same,fluorescence intensity,[13]; [27],48.2 MFI
same,fluorescence intensity,[14]; [28],15 MFI
same,fluorescence intensity,[14]; [29],16.5 MFI
same,fluorescence intensity,[14]; [30],17 MFI
same,fluorescence intensity,[14]; [31],17 MFI
same,fluorescence intensity,[14]; [24],16 MFI
same,fluorescence intensity,[14]; [25],17.5 MFI
same,fluorescence intensity,[14]; [26],19 MFI
same,fluorescence intensity,[14]; [27],43 MFI
same,fluorescence intensity,[15]; [28],12.5 MFI
same,fluorescence intensity,[15]; [29],14.5 MFI
same,fluorescence intensity,[15]; [30],26 MFI
same,fluorescence intensity,[15]; [31],92.5 MFI
same,fluorescence intensity,[15]; [24],428 MFI
same,fluorescence intensity,[15]; [25],1980 MFI
same,fluorescence intensity,[15]; [26],4740 MFI
same,fluorescence intensity,[15]; [27],8780 MFI
same,fluorescence intensity,[16]; [28],13.5 MFI
same,fluorescence intensity,[16]; [29],15.5 MFI
same,fluorescence intensity,[16]; [30],14.5 MFI
same,fluorescence intensity,[16]; [31],14.5 MFI
same,fluorescence intensity,[16]; [24],14 MFI
same,fluorescence intensity,[16]; [25],15 MFI
same,fluorescence intensity,[16]; [26],18.5 MFI
same,fluorescence intensity,[16]; [27],43.5 MFI
same,fluorescence intensity,[17]; [28],16.5 MFI
same,fluorescence intensity,[17]; [29],17.5 MFI
same,fluorescence intensity,[17]; [30],17 MFI
same,fluorescence intensity,[17]; [31],17 MFI
same,fluorescence intensity,[17]; [24],18 MFI
same,fluorescence intensity,[17]; [25],18 MFI
same,fluorescence intensity,[17]; [26],21.5 MFI
same,fluorescence intensity,[17]; [27],32 MFI
same,fluorescence intensity,[18]; [28],28 MFI
same,fluorescence intensity,[18]; [29],29 MFI
same,fluorescence intensity,[18]; [30],26.5 MFI
same,fluorescence intensity,[18]; [31],30.5 MFI
same,fluorescence intensity,[18]; [24],30 MFI
same,fluorescence intensity,[18]; [25],31 MFI
same,fluorescence intensity,[18]; [26],39.8 MFI
same,fluorescence intensity,[18]; [27],58.2 MFI
same,fluorescence intensity,[19]; [28],17.5 MFI
same,fluorescence intensity,[19]; [29],19.2 MFI
same,fluorescence intensity,[19]; [30],18.8 MFI
same,fluorescence intensity,[19]; [31],18 MFI
same,fluorescence intensity,[19]; [24],18.5 MFI
same,fluorescence intensity,[19]; [25],19.2 MFI
same,fluorescence intensity,[19]; [26],27 MFI
same,fluorescence intensity,[19]; [27],120 MFI
same,fluorescence intensity,[20]; [28],18.5 MFI
same,fluorescence intensity,[20]; [29],18.5 MFI
same,fluorescence intensity,[20]; [30],17.5 MFI
same,fluorescence intensity,[20]; [31],17.5 MFI
same,fluorescence intensity,[20]; [24],17.2 MFI
same,fluorescence intensity,[20]; [25],18 MFI
same,fluorescence intensity,[20]; [26],18 MFI
same,fluorescence intensity,[20]; [27],19.5 MFI
same,fluorescence intensity,[21]; [28],20 MFI
same,fluorescence intensity,[21]; [29],20.5 MFI
same,fluorescence intensity,[21]; [30],18.8 MFI
same,fluorescence intensity,[21]; [31],19 MFI
same,fluorescence intensity,[21]; [24],19 MFI
same,fluorescence intensity,[21]; [25],19.5 MFI
same,fluorescence intensity,[21]; [26],21 MFI
same,fluorescence intensity,[21]; [27],30.2 MFI
same,fluorescence intensity,[22]; [28],15.8 MFI
same,fluorescence intensity,[22]; [29],16.5 MFI
same,fluorescence intensity,[22]; [30],17 MFI
same,fluorescence intensity,[22]; [31],17.5 MFI
same,fluorescence intensity,[22]; [24],16.2 MFI
same,fluorescence intensity,[22]; [25],15 MFI
same,fluorescence intensity,[22]; [26],16 MFI
same,fluorescence intensity,[22]; [27],19.5 MFI
same,fluorescence intensity,[23]; [28],12.5 MFI
same,fluorescence intensity,[23]; [29],13.5 MFI
same,fluorescence intensity,[23]; [30],13.5 MFI
same,fluorescence intensity,[23]; [31],12 MFI
same,fluorescence intensity,[23]; [24],13 MFI
same,fluorescence intensity,[23]; [25],15.5 MFI
same,fluorescence intensity,[23]; [26],20.8 MFI
same,fluorescence intensity,[23]; [27],73 MFI

# An excerpt from the list above:
binder,measurement,setting,value
4-127.1 (protein) chain 1: QVQLQESGPGLVKPSETLSLTCAVSDYSINTGHGWTWIRQPPGKGLEWIGYIGGSSGSPNYNPSLKSRVTISKDTSKNELSLKLNSVTAADTAVYYCARRIPADRSGNDFWGQGVLVTVSS chain 2: QSVLTQPPSVSGDPGQRVTISCTGSSSNIGGFYGYWYQQFPGTAPKLLIYDNNKRPSGISDRFSGSKSGTSASLTITGLQPGDEADYYCGSWDSSLSAHVFGSGTKLTVL,fluorescence intensity,[16]; [29],15.5 MFI
same,fluorescence intensity,[16]; [30],14.5 MFI
same,fluorescence intensity,[16]; [31],14.5 MFI
same,fluorescence intensity,[16]; [24],14 MFI
same,fluorescence intensity,[16]; [25],15 MFI
same,fluorescence intensity,[16]; [26],18.5 MFI
same,fluorescence intensity,[16]; [27],43.5 MFI
same,fluorescence intensity,[17]; [28],16.5 MFI
same,fluorescence intensity,[17]; [29],17.5 MFI
same,fluorescence intensity,[17]; [30],17 MFI
same,fluorescence intensity,[17]; [31],17 MFI
same,fluorescence intensity,[17]; [24],18 MFI
same,fluorescence intensity,[17]; [25],18 MFI
same,fluorescence intensity,[17]; [26],21.5 MFI
same,fluorescence intensity,[17]; [27],32 MFI
same,fluorescence intensity,[18]; [28],28 MFI
same,fluorescence intensity,[18]; [29],29 MFI
same,fluorescence intensity,[18]; [30],26.5 MFI
same,fluorescence intensity,[18]; [31],30.5 MFI
same,fluorescence intensity,[18]; [24],30 MFI
same,fluorescence intensity,[18]; [25],31 MFI
same,fluorescence intensity,[18]; [26],39.8 MFI
same,fluorescence intensity,[18]; [27],58.2 MFI
same,fluorescence intensity,[19]; [28],17.5 MFI
same,fluorescence intensity,[19]; [29],19.2 MFI
same,fluorescence intensity,[19]; [30],18.8 MFI
same,fluorescence intensity,[19]; [31],18 MFI
same,fluorescence intensity,[19]; [24],18.5 MFI
same,fluorescence intensity,[19]; [25],19.2 MFI
same,fluorescence intensity,[19]; [26],27 MFI
same,fluorescence intensity,[19]; [27],120 MFI
same,fluorescence intensity,[20]; [28],18.5 MFI
same,fluorescence intensity,[20]; [29],18.5 MFI
same,fluorescence intensity,[20]; [30],17.5 MFI
same,fluorescence intensity,[20]; [31],17.5 MFI
same,fluorescence intensity,[20]; [24],17.2 MFI
same,fluorescence intensity,[20]; [25],18 MFI
same,fluorescence intensity,[20]; [26],18 MFI
same,fluorescence intensity,[20]; [27],19.5 MFI
same,fluorescence intensity,[21]; [28],20 MFI
same,fluorescence intensity,[21]; [29],20.5 MFI
same,fluorescence intensity,[21]; [30],18.8 MFI
same,fluorescence intensity,[21]; [31],19 MFI
same,fluorescence intensity,[21]; [24],19 MFI
same,fluorescence intensity,[21]; [25],19.5 MFI
same,fluorescence intensity,[21]; [26],21 MFI
same,fluorescence intensity,[21]; [27],30.2 MFI
same,fluorescence intensity,[22]; [28],15.8 MFI
